The values below come from patent US20070265288A1, “Stable Crystal Form of Imatinib Mesylate and Process for the Preparation Thereof” (priority 2004, published 2007).

The conditions of the data set: six and twelve months after manufacture.

Regarding `CS(=O)(=O)O.Cc1ccc(NC(=O)c2ccc(CN3CCN(C)CC3)cc2)cc1Nc1nccc(-c2cccnc2)n1` [imatinib mesylate], the “polymorphic and chemical identity” value was “retained the same polymorphic and chemical identity”.
